From patent US20110230472A1, “RING-FUSED AZOLE DERIVATIVE HAVING PI3K-INHIBITING ACTIVITY” (Shionogi & Co., Ltd., priority 2008, published 2011)
Some entries share one result that the patent states for a list of compounds.

By UniProt entry, the sequences of proteins in these tests, tags left out.
UniProt P08684, whole entry: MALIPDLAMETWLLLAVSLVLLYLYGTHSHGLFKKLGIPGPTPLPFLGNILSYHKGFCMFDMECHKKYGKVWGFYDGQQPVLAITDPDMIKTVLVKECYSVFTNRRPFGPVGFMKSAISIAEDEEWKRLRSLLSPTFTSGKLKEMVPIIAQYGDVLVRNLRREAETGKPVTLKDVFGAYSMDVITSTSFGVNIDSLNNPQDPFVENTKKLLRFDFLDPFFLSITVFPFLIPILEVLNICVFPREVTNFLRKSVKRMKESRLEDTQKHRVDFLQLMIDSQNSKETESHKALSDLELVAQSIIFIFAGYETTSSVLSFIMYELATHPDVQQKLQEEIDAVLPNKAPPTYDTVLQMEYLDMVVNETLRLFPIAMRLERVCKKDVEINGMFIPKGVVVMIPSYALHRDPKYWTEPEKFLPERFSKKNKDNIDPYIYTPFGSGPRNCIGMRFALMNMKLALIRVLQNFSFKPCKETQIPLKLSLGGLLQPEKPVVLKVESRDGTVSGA

tested on: not listed separately; experiment: Metabolic stability test; type: in vitro ADME; conditions: human liver microsome 0.5 mg protein/mL, 1 mmol/L NADPH, 37° C.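 Note: 100% equals the compound amount at 0 min reaction.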
Method: After a subject compound was reacted for a certain time using a pooled human liver microsome commercially available, a reacted sample and an unreacted sample are compared to calculate a survival ratio, and then the degree of metabolism in the liver was evaluated.
0.2 mL of a buffer solution (50 mmol/L of Tris-HCl in pH 7.4, 150 mmol/L of potassium chloride, and 10 mmol/L of magnesium chloride) containing a human liver microsome of 0.5 mg protein/mL was reacted in the presence of 1 mmol/L NADPH at 37° C. for 0 or 30 minutes (oxidative reaction). After reacting, 50 μL of the reaction solution was added to 100 μL of a solution of methanol/acetonitrile (1/1 (v/v)), mixed, and then centrifuged at 3000 rpm for 15 minutes. The test compound in the supernatant was quantitated with LC/MS/MS. The amount of the compound at a reaction time of 0 minute was defined as 100% and, based on that, the percentage of the test compound remained after reacting for 30 minutes was calculated.

Structure (SMILES)	percentage of the test compound remained after reacting for 30 minutes [%]
CNC(=O)Nc1cc2n(n1)CCN2c1cc(Br)cc(C(=O)N2CCNCC2)c1 [Compound I-185]	> 99.9
CNC(=O)Nc1cc2n(n1)CCN2c1ccc(C(=O)O)s1 [Compound I-217]	> 99.9
O=C(Cn1ccnc1)Nc1cc2n(n1)CCN2c1cccc(Cl)c1 [Compound I-242]	> 99.9
CN(C)C(=O)c1cc(C(=O)Nc2cc3n(n2)CCN3c2ccc3c(c2)CCN(C)C3=O)cs1 [Compound I-432]	> 99.9

target: CYP3A4 (Homo sapiens, UniProt P08684); experiment: CYP3A4 fluorescence MBI test; type: in vitro ADME; parameters: host or cells: E. coli; conditions: pre-reaction time 0 or 30 minutes; substrate 7-BFC; CYP3A4 expressed in E. coli

Structure (SMILES)	CYP3A4 fluorescence MBI: difference of IC50 values
CNC(=O)Nc1cc2n(n1)CCN2c1cc(Br)cc(C(=O)Nc2cccc(C(=O)O)c2)c1 [Compound I-187]	(−) (The case that it was 3 μM or lower was determined as (−))
CNC(=O)Nc1cc2n(n1)CCN2c1ccc2cnccc2c1 [Compound I-190]	(−) (The case that it was 3 μM or lower was determined as (−))
COc1cc(N2CCc3nc(NC(=O)NCC(=O)O)sc3C2)nc(OC)n1 [Compound I-208]	(−) (The case that it was 3 μM or lower was determined as (−))
CNC(=O)Nc1cc2n(n1)CCN2c1ccc(C(=O)O)s1 [Compound I-217]	(−) (The case that it was 3 μM or lower was determined as (−))
O=C(Cn1ccnc1)Nc1cc2n(n1)CCN2c1cccc(Cl)c1 [Compound I-242]	(−) (The case that it was 3 μM or lower was determined as (−))
COc1cc(N2CCc3nc(NC(=O)NCCC(=O)O)sc3C2)nc(OC)n1.Cl.Cl [Compound I-262]	(−) (The case that it was 3 μM or lower was determined as (−))
COc1cc(N2CCc3nc(NC(=O)NCCC(=O)N4CCC[C@H]4C(=O)O)sc3C2)nc(OC)n1 [Compound I-276]	(−) (The case that it was 3 μM or lower was determined as (−))
COc1cc(N2CCc3nc(NC(=O)NCc4cc(=O)[nH]o4)sc3C2)nc(OC)n1 [Compound I-279]	(−) (The case that it was 3 μM or lower was determined as (−))
COc1nc(OC)nc(N2CCc3nc(NC(C)=O)sc3C2)n1 [Compound I-330]	(−) (The case that it was 3 μM or lower was determined as (−))
CN1CCc2cc(N3CCn4nc(NC(=O)CC5CCNC5)cc43)ccc2C1=O.Cl.Cl (stereo not shown) [Compound I-356]	(−) (The case that it was 3 μM or lower was determined as (−))
CN1CCc2cc(N3CCn4nc(NC(=O)c5cc(O)no5)cc43)ccc2C1=O [Compound I-397]	(−) (The case that it was 3 μM or lower was determined as (−))
CN1CCc2cc(N3CCn4nc(NC(=O)c5ccc(C(=O)NCC#N)s5)cc43)ccc2C1=O [Compound I-409]	(−) (The case that it was 3 μM or lower was determined as (−))
